At least one read-out could not be matched to a standard name with certainty.
Assay: Reactivity of Fe^VI with DMSO
Type: physicochemical
Conditions: 1 mM DMSO, pH 8.0

## Potassium ferrate [Fe^VI]
  t1/2 of Fe^VI removal by DMSO: about 690 seconds

From patent US12329160B2, “Activated ferrate compositions” (THE TEXAS A & M UNIVERSITY SYSTEM, priority 2018, dated 2025)
